For at least one compound, name, drawing or mass did not settle the structure.
System: model of sustained atrial fibrillation
Assay: Test Example 1: screening for atrial fibrillation inhibitor, intravenous injection, Holter electrocardiogram
Details: 30 mg/kg intravenous; 1 individual, FIGS. 5A to 5C

## CCOC(=O)C1=C[C@@H](OC(CC)CC)[C@H](NC(C)=O)[C@@H](N)C1 [Oseltamivir, oseltamivir]
  time after beginning of administration at which atrial fibrillation was terminated: 5 min 50 sec

Source: patent publication US20140051756A1, “METHOD FOR PREVENTING OR TREATING ARRHYTHMIA, METHOD FOR PREVENTING OR TREATING ATRIAL FIBRILLATION, MODEL OF SUSTAINED ATRIAL FIBRILLATION, METHOD FOR PRODUCING THE MODEL, AND METHOD FOR SCREENING FOR ATRIAL FIBRILLATION INHIBITOR” (Toho University, priority 2011, published 2014)
